We go through 29 targets from the supplement of paper PMC10849652.

The chains behind the UniProt entries cited, without tags or fusion partners. Where a name states a change or a piece, a line headed by the entry shows the natural chain unless it says otherwise.
UniProt Q14CZ7: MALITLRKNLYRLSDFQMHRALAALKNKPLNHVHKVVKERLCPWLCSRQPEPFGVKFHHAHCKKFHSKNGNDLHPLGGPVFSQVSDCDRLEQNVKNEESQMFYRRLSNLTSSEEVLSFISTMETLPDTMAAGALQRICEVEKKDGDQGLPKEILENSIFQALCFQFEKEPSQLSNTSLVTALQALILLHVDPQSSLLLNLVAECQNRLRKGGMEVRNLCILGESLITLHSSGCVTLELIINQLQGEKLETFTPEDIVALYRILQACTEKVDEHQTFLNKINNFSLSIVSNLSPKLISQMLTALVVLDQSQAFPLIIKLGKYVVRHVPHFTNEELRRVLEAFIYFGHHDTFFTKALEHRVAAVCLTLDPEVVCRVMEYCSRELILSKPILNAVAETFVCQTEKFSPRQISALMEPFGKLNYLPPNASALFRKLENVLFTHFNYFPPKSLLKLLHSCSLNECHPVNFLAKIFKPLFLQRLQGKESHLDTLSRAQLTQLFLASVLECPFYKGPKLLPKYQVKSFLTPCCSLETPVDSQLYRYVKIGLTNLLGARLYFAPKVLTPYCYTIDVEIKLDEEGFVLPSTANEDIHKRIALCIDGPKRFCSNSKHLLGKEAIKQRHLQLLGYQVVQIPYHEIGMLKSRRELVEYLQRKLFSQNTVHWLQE
UniProt Q9BSK4: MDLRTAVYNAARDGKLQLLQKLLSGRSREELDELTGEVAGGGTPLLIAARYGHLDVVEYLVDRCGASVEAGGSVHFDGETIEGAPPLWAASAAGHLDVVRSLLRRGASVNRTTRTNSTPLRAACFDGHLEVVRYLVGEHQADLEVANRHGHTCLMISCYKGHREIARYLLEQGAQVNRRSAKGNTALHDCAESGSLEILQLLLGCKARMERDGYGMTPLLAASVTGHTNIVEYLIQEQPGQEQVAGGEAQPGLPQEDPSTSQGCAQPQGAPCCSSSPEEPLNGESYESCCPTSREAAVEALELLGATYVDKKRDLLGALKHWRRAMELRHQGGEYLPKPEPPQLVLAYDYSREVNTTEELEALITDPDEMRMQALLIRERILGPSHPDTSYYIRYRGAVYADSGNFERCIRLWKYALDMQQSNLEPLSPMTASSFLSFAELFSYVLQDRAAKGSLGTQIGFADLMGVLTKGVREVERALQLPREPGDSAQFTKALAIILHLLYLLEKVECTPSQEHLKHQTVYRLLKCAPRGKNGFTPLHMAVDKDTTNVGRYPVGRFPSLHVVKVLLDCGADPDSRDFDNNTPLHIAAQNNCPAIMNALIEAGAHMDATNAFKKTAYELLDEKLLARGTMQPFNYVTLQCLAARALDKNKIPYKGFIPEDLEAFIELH
UniProt Q9UKA2: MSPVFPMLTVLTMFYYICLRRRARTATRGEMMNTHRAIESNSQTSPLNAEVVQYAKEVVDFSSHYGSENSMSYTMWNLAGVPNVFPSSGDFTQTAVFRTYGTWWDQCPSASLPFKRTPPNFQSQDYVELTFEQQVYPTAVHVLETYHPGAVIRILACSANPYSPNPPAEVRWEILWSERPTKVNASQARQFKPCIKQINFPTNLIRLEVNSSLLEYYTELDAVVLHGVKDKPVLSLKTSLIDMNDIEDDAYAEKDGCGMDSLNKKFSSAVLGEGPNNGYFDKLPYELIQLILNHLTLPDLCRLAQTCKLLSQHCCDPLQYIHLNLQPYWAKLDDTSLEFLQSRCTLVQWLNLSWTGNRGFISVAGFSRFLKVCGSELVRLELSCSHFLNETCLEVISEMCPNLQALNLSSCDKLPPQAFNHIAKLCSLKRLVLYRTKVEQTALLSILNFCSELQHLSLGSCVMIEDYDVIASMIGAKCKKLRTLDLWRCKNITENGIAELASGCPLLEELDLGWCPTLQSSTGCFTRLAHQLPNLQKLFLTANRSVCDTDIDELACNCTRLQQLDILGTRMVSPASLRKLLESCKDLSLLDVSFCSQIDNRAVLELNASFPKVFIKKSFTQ
UniProt Q6UN15: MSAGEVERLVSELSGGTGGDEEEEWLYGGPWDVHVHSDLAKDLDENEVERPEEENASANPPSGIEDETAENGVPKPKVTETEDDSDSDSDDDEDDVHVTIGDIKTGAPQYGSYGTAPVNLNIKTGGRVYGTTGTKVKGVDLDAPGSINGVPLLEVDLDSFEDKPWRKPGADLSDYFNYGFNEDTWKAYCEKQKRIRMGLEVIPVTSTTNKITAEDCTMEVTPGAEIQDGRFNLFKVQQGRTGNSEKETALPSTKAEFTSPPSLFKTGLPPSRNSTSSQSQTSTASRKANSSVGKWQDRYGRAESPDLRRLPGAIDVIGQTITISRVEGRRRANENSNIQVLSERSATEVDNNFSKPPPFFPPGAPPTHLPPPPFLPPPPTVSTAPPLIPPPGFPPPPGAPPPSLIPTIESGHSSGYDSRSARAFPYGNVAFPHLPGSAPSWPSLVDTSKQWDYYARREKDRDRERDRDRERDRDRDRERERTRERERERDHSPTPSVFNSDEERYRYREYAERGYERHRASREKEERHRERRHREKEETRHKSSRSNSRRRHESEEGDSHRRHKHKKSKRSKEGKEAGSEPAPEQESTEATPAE
UniProt P15407: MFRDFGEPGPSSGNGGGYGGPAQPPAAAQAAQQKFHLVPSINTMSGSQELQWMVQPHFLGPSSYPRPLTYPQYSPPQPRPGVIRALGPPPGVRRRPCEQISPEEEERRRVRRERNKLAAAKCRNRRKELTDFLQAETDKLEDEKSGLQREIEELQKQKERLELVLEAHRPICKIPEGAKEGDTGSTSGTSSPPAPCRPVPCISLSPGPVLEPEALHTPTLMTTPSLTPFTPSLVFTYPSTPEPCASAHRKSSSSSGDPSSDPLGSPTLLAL
UniProt Q4VC44: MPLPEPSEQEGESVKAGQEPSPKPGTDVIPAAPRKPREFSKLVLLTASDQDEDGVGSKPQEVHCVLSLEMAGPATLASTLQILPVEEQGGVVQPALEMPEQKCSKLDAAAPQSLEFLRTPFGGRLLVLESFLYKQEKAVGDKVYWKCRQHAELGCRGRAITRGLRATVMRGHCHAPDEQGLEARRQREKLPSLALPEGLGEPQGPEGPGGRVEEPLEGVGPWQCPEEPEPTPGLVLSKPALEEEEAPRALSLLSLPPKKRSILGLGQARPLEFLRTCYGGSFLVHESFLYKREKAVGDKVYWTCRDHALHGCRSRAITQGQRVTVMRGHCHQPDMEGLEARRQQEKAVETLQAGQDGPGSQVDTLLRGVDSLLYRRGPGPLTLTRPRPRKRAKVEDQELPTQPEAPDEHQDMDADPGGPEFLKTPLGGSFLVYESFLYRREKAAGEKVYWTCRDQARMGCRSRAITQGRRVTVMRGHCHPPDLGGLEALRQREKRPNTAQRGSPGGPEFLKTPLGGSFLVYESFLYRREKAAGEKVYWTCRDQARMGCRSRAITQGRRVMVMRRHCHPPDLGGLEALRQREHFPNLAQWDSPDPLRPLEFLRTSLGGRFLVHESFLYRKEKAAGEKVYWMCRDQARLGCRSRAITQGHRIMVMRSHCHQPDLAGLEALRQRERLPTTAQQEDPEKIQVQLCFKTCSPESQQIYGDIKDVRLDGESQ
UniProt Q9HB96: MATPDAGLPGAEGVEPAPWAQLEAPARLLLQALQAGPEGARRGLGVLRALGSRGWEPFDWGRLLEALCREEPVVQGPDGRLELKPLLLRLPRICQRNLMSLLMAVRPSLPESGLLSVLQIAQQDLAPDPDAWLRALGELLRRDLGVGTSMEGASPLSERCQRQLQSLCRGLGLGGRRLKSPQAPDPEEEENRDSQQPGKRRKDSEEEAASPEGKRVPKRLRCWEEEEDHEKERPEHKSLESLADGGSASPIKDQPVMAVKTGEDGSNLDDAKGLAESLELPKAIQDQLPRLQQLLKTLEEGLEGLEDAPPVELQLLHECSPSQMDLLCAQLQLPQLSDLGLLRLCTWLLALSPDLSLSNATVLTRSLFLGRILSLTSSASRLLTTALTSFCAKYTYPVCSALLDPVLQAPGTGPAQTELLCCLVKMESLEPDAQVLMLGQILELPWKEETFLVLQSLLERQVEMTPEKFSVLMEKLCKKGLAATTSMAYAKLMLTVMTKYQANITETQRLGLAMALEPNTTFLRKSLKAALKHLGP
UniProt O94868: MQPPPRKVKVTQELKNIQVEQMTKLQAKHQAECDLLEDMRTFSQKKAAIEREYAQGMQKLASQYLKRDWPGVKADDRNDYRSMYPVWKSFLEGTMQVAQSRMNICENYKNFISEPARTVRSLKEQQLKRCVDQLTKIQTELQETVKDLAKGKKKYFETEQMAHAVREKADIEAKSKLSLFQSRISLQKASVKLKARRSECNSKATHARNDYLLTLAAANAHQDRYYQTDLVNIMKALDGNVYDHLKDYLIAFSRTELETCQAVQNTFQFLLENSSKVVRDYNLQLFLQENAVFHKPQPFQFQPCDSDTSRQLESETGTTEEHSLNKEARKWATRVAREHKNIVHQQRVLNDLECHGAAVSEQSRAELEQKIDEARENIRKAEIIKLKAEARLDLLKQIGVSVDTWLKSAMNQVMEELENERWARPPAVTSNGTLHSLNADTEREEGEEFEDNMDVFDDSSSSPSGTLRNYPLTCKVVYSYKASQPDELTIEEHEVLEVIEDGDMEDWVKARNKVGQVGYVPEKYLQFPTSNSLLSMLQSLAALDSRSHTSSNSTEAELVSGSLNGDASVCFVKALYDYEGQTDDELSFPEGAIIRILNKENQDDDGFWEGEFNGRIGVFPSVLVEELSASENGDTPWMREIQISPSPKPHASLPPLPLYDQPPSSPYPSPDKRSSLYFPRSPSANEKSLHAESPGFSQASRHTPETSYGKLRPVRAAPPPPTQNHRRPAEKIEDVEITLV
UniProt Q96PY5, whole entry, looked up: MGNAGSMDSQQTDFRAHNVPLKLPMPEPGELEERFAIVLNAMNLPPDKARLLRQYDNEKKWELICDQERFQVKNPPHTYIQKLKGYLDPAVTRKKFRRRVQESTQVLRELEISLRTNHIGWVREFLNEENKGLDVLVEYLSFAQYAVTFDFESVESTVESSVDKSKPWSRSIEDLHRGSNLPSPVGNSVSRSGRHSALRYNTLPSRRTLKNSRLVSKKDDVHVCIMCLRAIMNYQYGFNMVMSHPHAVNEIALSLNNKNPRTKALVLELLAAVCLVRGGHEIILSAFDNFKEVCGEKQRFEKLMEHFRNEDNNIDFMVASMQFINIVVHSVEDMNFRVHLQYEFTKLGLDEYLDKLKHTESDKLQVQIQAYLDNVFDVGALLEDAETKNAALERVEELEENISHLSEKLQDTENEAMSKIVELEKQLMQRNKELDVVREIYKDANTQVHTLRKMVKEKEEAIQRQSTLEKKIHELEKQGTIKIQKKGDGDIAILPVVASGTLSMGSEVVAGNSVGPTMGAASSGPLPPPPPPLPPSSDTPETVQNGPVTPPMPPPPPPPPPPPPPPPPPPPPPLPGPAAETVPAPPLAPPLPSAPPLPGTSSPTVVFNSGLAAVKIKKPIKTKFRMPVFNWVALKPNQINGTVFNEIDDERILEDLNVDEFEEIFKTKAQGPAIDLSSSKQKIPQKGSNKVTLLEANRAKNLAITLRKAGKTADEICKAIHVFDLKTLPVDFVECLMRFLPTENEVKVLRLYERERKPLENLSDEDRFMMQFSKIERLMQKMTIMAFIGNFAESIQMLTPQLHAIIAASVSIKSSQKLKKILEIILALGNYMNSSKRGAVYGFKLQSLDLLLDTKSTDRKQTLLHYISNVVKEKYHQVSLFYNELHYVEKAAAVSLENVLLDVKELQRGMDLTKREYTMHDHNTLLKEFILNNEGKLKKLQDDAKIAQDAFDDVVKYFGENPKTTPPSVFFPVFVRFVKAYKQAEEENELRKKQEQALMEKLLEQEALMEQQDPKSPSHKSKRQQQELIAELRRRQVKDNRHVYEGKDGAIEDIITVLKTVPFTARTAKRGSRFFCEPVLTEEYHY
UniProt Q8N6M3: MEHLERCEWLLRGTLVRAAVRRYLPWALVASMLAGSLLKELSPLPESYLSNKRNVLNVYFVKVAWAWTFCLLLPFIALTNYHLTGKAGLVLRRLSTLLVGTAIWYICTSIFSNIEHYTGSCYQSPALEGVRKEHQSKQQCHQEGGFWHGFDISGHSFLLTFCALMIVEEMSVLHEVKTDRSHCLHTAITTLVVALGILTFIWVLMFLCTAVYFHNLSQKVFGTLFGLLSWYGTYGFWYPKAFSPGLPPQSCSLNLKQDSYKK
UniProt P0C5J1: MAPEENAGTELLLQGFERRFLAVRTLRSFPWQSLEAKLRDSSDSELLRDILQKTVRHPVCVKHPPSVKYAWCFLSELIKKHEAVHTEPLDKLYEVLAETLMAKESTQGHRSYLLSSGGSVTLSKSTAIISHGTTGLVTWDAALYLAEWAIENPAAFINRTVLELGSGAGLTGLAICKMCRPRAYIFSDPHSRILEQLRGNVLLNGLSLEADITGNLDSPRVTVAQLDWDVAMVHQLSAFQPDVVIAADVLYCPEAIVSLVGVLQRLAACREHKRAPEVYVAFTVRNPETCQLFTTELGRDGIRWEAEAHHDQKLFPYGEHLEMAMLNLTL

The list shows a part of the results.

Compound in the first test: COC(=O)[C@H](CCSC)NC(=O)C1=C(C=C(C=C1)NC[C@H](CS)N)C2=CC=CC=C2
Briefly: log2 fold change, soluble protein after heating vs DMSO (PISA); higher = thermal stabilisation; K562 lysate, 10 uM; active = over 0.2 and 3.5 SD of the protein, either way, in both replicates (recomputed). Put shortly: (§1)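 Values give the log-two fold change in thermal stability against solvent controls, from duplicates. Crude K562 extract at 1 mg/mL protein, made by dounce homogenisation in PBS pH 7.4 with 1 mM MgCl2, was treated with 10 μM compound for 30 min. After 3 min heating across 48°C-58°C, aliquots were pooled, adjusted to 0.5% NP-40 at 4°C and centrifuged at 21,000xg for 90 min. The supernatant was measured by TMTpro 16plex LC-MS/MS with channel sums equalised.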
For the target FASTKD3 (UniProt Q14CZ7), the log2 fold change was inactive: -0.001.
Still for that read-out and setting: in the case of FANCA (UniProt O15360) it was inactive: 0.157.
On the same count and under the same terms, then FEM1A (UniProt Q9BSK4), with inactive: 0.003; and FBXL4 (UniProt Q9UKA2), with inactive: 0.03; and FLII isoform 2 (UniProt Q13045), with inactive: 0.285.
Consider FBXW8 (UniProt Q8N3Y1), for which the log2 fold change is inactive: 0.016.
Regarding FIP1L1 isoform 3 (UniProt Q6UN15), the log2 fold change was inactive: -0.224.
Consider FARP1 isoform 2 (UniProt Q9Y4F1), for which the log2 fold change is inactive: 0.234.
Turning to FHAD1 isoform 3 (UniProt B1AJZ9), the log2 fold change was inactive: 0.019.
For FCGR2B (UniProt P31994), the log2 fold change is inactive: -0.145.
For FILIP1L (UniProt Q4L180), the log2 fold change is inactive: -0.216.
On the same count and under the same terms, in the case of FOS (UniProt P01100) it was inactive: 0.207.

Compound in a further test: COc1cc(Nc2ncc3c(n2)-c2ccc(Cl)cc2C(c2c(F)cccc2OC)=NC3)ccc1C(=O)O [alisertib]
Described as above. An outline of the steps: as §1
For FASTKD3 (UniProt Q14CZ7), the log2 fold change is inactive: 0.045.
Same read-out and setting: in the case of FEM1A (UniProt Q9BSK4) it was inactive: 0.087.
Still for that read-out and setting: in the case of FBXL4 (UniProt Q9UKA2) it was inactive: 0.06.
The same measure, in the same setting: in the case of FOSL1 (UniProt P15407) it was inactive: -0.233; in that of FBXW8 (UniProt Q8N3Y1), inactive: 0.103.
Take FIP1L1 isoform 3 (UniProt Q6UN15): the log2 fold change is inactive: 0.109.
Same read-out and setting: then FLYWCH1 isoform 3 (UniProt Q4VC44), with inactive: -0.036.
On the same count and under the same terms, then FANCE (UniProt Q9HB96), with inactive: 0.001; and FCHSD2 (UniProt O94868), with inactive: 0.114.
The same measure, in the same setting: then FMNL2 isoform 3 (UniProt Q96PY5), with inactive: 0.073.
As for FCF1 (UniProt Q9Y324), the log2 fold change was inactive: -0.266.
On the same count and under the same terms, then FITM2 (UniProt Q8N6M3), with inactive: 0.029; and FBH1 isoform 2 (UniProt Q8NFZ0), with inactive: 0.132; and FAM86B2 (UniProt P0C5J1), with inactive: 0.15.

Compound in another test: COc1cc2nc(-c3cc(F)ccc3O)nc(N[C@@H]3CNC[C@H]3C(C)(C)O)c2cc1OC
The test is described as above. Put shortly:
as §1
On to FASTKD3 (UniProt Q14CZ7), for which the log2 fold change is inactive: -0.172.
The same measure, in the same setting: then FEM1A (UniProt Q9BSK4), with inactive: 0.021; and FANCC (UniProt Q00597), with inactive: 0.06; and FBXO28 (UniProt Q9NVF7), with inactive: -0.043.
The same measure, in the same setting: then FMNL3 (UniProt Q8IVF7), with inactive: -0.071; and FOSL1 (UniProt P15407), with inactive: 0.215; and FLII isoform 2 (UniProt Q13045), with inactive: -0.026.
On the same count and under the same terms, then FMR1 isoform 9 (UniProt Q06787), with inactive: 0.002; and FBXW8 (UniProt Q8N3Y1), with inactive: -0.036.
For FIP1L1 isoform 3 (UniProt Q6UN15), the log2 fold change is inactive: 0.2.
As for FER isoform 3 (UniProt P16591), the log2 fold change was inactive: -0.11.
Still for that read-out and setting: then FLYWCH1 isoform 3 (UniProt Q4VC44), with inactive: -0.25; and FANCE (UniProt Q9HB96), with inactive: -0.086; and FCHSD2 (UniProt O94868), with inactive: -0.032.
Turning to FMNL2 isoform 3 (UniProt Q96PY5), the log2 fold change is inactive: 0.119.
The same measure, in the same setting: then FITM2 (UniProt Q8N6M3), with inactive: 0.044.
Still for that read-out and setting: in the case of FDPS, A0A087WVN4 it was inactive: 0.039; in that of FHAD1 isoform 3 (UniProt B1AJZ9), inactive: 0.153; in that of FILIP1L (UniProt Q4L180), inactive: 0.044.
On the same count and under the same terms, then FASN, A0A0U1RRG3, with inactive: 0.
Consider FLNA (UniProt H0Y5C6), for which the log2 fold change was inactive: -0.059.
The same measure, in the same setting: then FAM86B2 (UniProt P0C5J1), with inactive: 0.2.

Compound in a further test: COc1cc2ncnc(Nc3ccc(F)c(Cl)c3)c2cc1OCCCN1CCOCC1 [gefitinib]
The description is as above. An outline of the steps:
as §1
FASTKD3 (UniProt Q14CZ7): the log2 fold change is inactive: 0.067.
Still for that read-out and setting: in the case of FEM1A (UniProt Q9BSK4) it was inactive: 0.143; in that of FBXL4 (UniProt Q9UKA2), inactive: -0.391.
The same measure, in the same setting: in the case of FOSL1 (UniProt P15407) it was inactive: -0.01.
Same read-out and setting: in the case of FBXW8 (UniProt Q8N3Y1) it was inactive: -0.384; in that of FIP1L1 isoform 3 (UniProt Q6UN15), inactive: -0.062; in that of FLYWCH1 isoform 3 (UniProt Q4VC44), inactive: 0.019.
Take FANCE (UniProt Q9HB96): the log2 fold change is inactive: 0.095.
On the same count and under the same terms, then FCHSD2 (UniProt O94868), with inactive: 0.071; and FMNL2 isoform 3 (UniProt Q96PY5), with inactive: 0.241.
Still for that read-out and setting: in the case of FCF1 (UniProt Q9Y324) it was inactive: -0.236; in that of FITM2 (UniProt Q8N6M3), inactive: -0.207; in that of FBH1 isoform 2 (UniProt Q8NFZ0), inactive: -0.071.
On the same count and under the same terms, then FAM86B2 (UniProt P0C5J1), with inactive: -0.042.
